Assay results from publication doi:10.1101/834135.
Results are given in words; binding and its absence hold for the method and conditions named. In cells and extracts the contact can be indirect. Some binding calls cover weakened binding; strength is not graded here.

Molecular target: T1, Sparc/osteonectin, cwcv and kazal-like domains proteoglycan 1 (SPOCK1) (human (endogenous in MCF7 and SKBR3)) (UniProt Q08629)
T1 sequence: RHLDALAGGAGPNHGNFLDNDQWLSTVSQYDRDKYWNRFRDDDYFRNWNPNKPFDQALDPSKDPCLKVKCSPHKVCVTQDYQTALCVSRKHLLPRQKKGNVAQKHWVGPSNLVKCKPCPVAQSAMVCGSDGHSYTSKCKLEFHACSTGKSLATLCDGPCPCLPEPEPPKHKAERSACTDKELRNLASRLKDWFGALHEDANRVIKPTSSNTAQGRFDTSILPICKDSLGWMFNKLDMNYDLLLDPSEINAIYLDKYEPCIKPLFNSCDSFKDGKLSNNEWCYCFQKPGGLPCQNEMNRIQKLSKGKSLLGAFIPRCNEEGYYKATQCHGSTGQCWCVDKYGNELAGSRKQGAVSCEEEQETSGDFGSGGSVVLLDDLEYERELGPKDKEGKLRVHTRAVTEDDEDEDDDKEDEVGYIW
Test: co-IP

B1: SIX homeobox 1 (SIX1) (protein, UniProt Q15475 1-284)
chain: MSMLPSFGFTQEQVACVCEVLQQGGNLERLGRFLWSLPACDHLHKNESVLKAKAVVAFHRGNFRELYKILESHQFSPHNHPKLQQLWLKAHYVEAEKLRGRPLGAVGKYRVRRKFPLPRTIWDGEETSYCFKEKSRGVLREWYAHNPYPSPREKRELAEATGLTTTQVSNWFKNRRQRDRAAEAKERENTENNNSSSNKQNQLSPLEGGKPLMSSSEEEFSPPQSPDQNSVLLLQGNMGHARSSNYSLPGLTASQPSHGLQTHQHQLQDSLLGPLTSSLVDLGS
- binding: binds
